Laboratory results taken from patent publication US7687465B2, “Therapeutic cancer vaccine” (Kraeftens Bekaempelse, priority 2003, dated 2010).
Part of at least one peptide drawing is inferred or uncertain, most often the ends.

How the values were obtained:
[1] = system: primary melanoma sections; test: In situ detection of ML-IAP-reactive CTL with multimerized HLA-A2/peptide complexes; parameters: species or system human; details: sections of primary melanoma from six patients
Description: In situ detection of ML-IAP-reactive CTL. Confocal laser scanning microscopy was used to detect CTL reacting with a Cy3-conjugated anti-CD8 antibody (red channel) and a fluorescein isothiocyanate-conjugated multimeric HLA-A2/ML-IAP280 construct (green channel) (first and second columns) or with a fluorescein isothiocyanate conjugated multimeric HLA-A2/ML-IAP245 construct (last column) in primary tumors from two HLA-A2-positive melanoma patients.
HLA-A2 and ML-IAP245/HLA-A2-specific monomers were multimerized using dextran molecules, which were conjugated with both streptavidin and fluorescein isothiocyanate. Multimerized MHC complexes were used to stain acetone-fixed, frozen material as described previously^11,48 and antigen-specific cells were visualized using a confocal laser microscope. Sections of primary melanoma from six patients were analyzed, and ML-IAP280- and ML-IAP245-reactive CTL could readily be detected in situ in the tumor microenvironment in two of the patients (FIG. 4).

[2] = system: peripheral blood T cells or TIL from melanoma patients; test: ELISPOT IFN-γ secretion assay, T-cell responses against HLA-A2 binding ML-IAP peptides; format: cell-based, human
Protocol: Peripheral blood was obtained from melanoma patients before vaccination and subsequent to a series of vaccinations. In order to identify peptide-specific T-cell precursors, peripheral blood lymphocytes (PBL) were used directly in the ELISPOT (designated direct ELISPOT). However, to extend the sensitivity of the ELISPOT assay, PBL were stimulated once in vitro prior to analysis^17,18. At day 0, PBL or crushed lymph nodes were thawed and plated in 2 ml/well at a concentration of 2×10^6 cells in 24-well plates (Nunc, Denmark) in X-vivo medium (Bio Whittaker, Walkersville, Md.), 5% heat-inactivated human serum, and 2 mM of L-glutamine in the presence of 10 μM of peptide. Two days later 20 IU/ml recombinant interleukin-2 (IL-2) (Chiron, Ratingen, Germany) was added to the cultures. The cultured cells were tested for reactivity in the ELISPOT on day 8.
The ELISPOT assay used to quantify peptide epitope specific interferon-7 releasing effector cells was adapted from Lalvani et al.^37, and Scheibenbogen et al.^38. Briefly, nitrocellulose bottomed 96-well plates (MultiScreen MAIP N45, Millipore) were coated overnight at 4° C. with 7.5 μg/ml of anti-IFN-γ antibody (1-D1K, Mabtech, Sweden) in 75 μl sterile PBS. Subsequently, the wells were washed six times with PBS, and non-specific binding were blocked by X-vivo medium for 2 hours at 37° C. […]
The following day, media was discarded and the wells were washed (six times) with PBS containing 0.05% Tween (PBS/Tw) before the addition of biotinylated secondary antibody (7-B6-1-Biotin, Mabtech) at 0.5 μg/ml in 75 μl PBS containing 1% BSA and 0.02% NaN3 (PBS/BSA). […] The spots were then counted using the AlphaImager System (Alpha Innotech, San Leandro, Calif., USA) and the peptide specific CTL frequency could be calculated as the number of spot-forming cells. […]
The ELISPOT assay used to quantify peptide epitope-specific interferon-γ-releasing effector cells was performed as described previously^19. […]

CC[C@H](C)[C@H](NC(=O)[C@@H]1CCCN1C(=O)[C@H](CS)NC(=O)[C@H](CC(C)C)NC(=O)[C@@H](N)CCC(N)=O)C(=O)N[C@@H](CS)C(=O)N[C@@H](CCCNC(=N)N)C(=O)N[C@@H](C)C(=O)N1CCC[C@H]1C(=O)N[C@H](C(=O)O)C(C)C [ML-IAP280]
patients with peptide-reactive CTL detected in situ in the tumor microenvironment [1]: two
strength of spontaneous CTL response ([2]; TIL and PBL from melanoma patients, in words): strong CTL responses
TIL samples in which a response against the peptide was detected ([2]; TIL from melanoma patients (n=22), stimulated once in vitro with peptide, number of samples): seven
PBL samples in which a response against the peptide was detected ([2]; peripheral blood T cells from melanoma patients (n=7), stimulated once in vitro with peptide, number of samples): one
